A short description of this experiment: IkB Signaling. As to conditions: ABC-DLBCL IkBa-CBG/CBR dual luciferase ratio (green luciferase fused to IkBa over red control in OCI-Ly3 lymphoma cells), 4 h. In a few lines:
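Curves were fitted separately to fusion (green), unfused (red) and ratio luminescence, then classed by r2, magnitude and activity. Cells: OCI-Ly3, 4 h compound plus doxycycline at 37C; 10 uM MG-132 defined full response.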

Setting [1] is: measured here: control luc red channel unless noted.
Where [2] appears, read: measured here: IkB-luc green channel.
The mark [3] stands for this setting: measured here: control luc red channel.

Some of the results follow. Shown are side measurements of this screen, not its main read-out; they come without a call. Compounds called inactive in the main read-out are mostly missing here. Potencies come from curve fits of mixed quality, noted in brackets.

`CCCCN(CC)C(=O)CSc1c2c(nc3ccc(Cl)cc13)CCCC2`: the AC50 under setting [1] was 12.6 µM [falling, partial curve].
For the molecule `CCn1c(CN2CCC(C)CC2)nc2cc(NC(=O)COc3ccc(Cl)c(C)c3)ccc21`, the AC50 under setting [1] is 2 µM [falling, full curve].
Consider `COc1cc(OC)c(NC(=O)CCc2c(C)nc3ncnn3c2C)cc1Cl`, for which the AC50 under setting [1] was 12.6 µM [falling, partial curve].
As for `CCc1ccc(-n2c(SCc3ccccc3Cl)nc3[nH]ncc3c2=O)cc1`, the AC50 under setting [1] is 39.8 µM [falling, single point].
Regarding `COc1cccc(N2CCN(C(=O)c3cc4cc5cc(C)ccc5nc4s3)CC2)c1`, the AC50 under setting [1] is 39.8 µM [rising, single point].
`Cc1cccc(NC(=O)Cn2cc(C(=O)c3ccco3)c3ccccc32)c1`: under setting [1], the AC50 is 20 µM [falling, single point].
Still for that read-out and setting: next, `COc1ccc(-c2oc3ncn(CCN4CCOCC4)c(=N)c3c2-c2ccc(OC)cc2)cc1`: 20 µM [falling, partial curve]; `O=C1CN(Cc2ccccc2)C(=NCc2ccco2)S1`: 2.51 µM [rising, full curve] [measured here: IkB-luc green channel].
Turning to `COc1ccc(Cn2cc(S(=O)(=O)c3ccc(Cl)cc3)c(=O)c3cc4c(cc32)OCO4)cc1`, the AC50 under setting [1] was 12.6 µM [falling, partial curve].
For `O=C(NC1(C(F)(F)F)C(=O)Nc2c1c(=O)[nH]c(=O)n2-c1ccc(Cl)cc1)c1ccccc1F` (stereo not given), the AC50 under setting [1] was 0.0316 µM [falling, full curve].
As for `Cc1cccc(OCC(=O)Nc2ccc(-c3nc4ccccc4o3)cc2)c1C`, the AC50 under setting [1] is 15.8 µM [falling, partial curve].
For `CCn1c(=N)n(CCOc2ccc(Br)cc2)c2ccccc21`, the AC50 under setting [1] was 39.8 µM [falling, single point].
Same read-out and setting: next, `COc1ccc(CC(=O)NCCc2csc(-c3cccc(C)c3)n2)cc1`: 39.8 µM [falling, single point]; `CC(=O)c1cccc(NC(=O)CC(c2ccc(C)cc2)N2Cc3ccccc3C2=O)c1` (stereo not given): 39.8 µM [falling, single point]; `COc1cc(S(=O)(=O)n2nnc3ccccc32)c(OC)cc1Cl`: 12.6 µM [falling, partial curve].
The same measure, in the same setting: then `CCN(C(=O)Nc1cn(CC(C)C)c(=O)c2ccccc12)c1cc(C)ccc1C`, with 31.6 µM [falling, partial curve].
Same read-out and setting: then `COc1ccccc1CN1C(=O)CN(C2CCCCCC2)C(=O)C1c1ccc(F)cc1` (stereo not given), with 39.8 µM [falling, single point]; and `Cc1ccc2nc(Nc3ccc(C)c(F)c3)c3nncn3c2c1`, with 3.98 µM [rising, partial curve].
For `c1ccc(OCc2nc3ccccc3s2)cc1`, under setting [1], the AC50 is 12.6 µM [falling, partial curve].
As for `COc1ccc2cc(C(=O)NCc3ccc4c(c3)CCN4C(=O)c3ccc(F)cc3)[nH]c2c1`, under setting [1], the AC50 was 10 µM [falling, partial curve].
Consider `COc1cc(C)cc2oc(=O)c(CC(=O)NCCc3ccc(Cl)cc3)c(C)c12`, for which the half-maximal activity concentration (AC50) under setting [1] was 39.8 µM [rising, single point] [measured here: IkB-luc green channel].
For the molecule `Fc1cccc(-c2nnn3c2nc(NCCc2ccccc2)c2ccccc23)c1`, under setting [1], the AC50 was 0.2 µM [falling, full curve].
On to `N#CCSc1nc(Nc2ccc3c(c2)OCO3)c2ccccc2n1`, for which the AC50 under setting [1] is 6.31 µM [falling, partial curve].
Take `CCCCN(C)CC(O)Cn1cc(/C=C/C(=O)c2ccc(OC)c(OC)c2)c2ccccc21` (stereo not given): the AC50 under setting [1] is 25.1 µM [falling, partial curve].
Turning to `Cc1ccc(-c2nc(S(=O)(=O)c3ccc(Cl)cc3)c(N3CCCCC3)o2)cc1`, the AC50 under setting [1] is 12.6 µM [falling, partial curve, poor fit].
Still for that read-out and setting: next, `COc1ccc(CNC(=O)Cn2nnc(-c3ccccc3F)n2)cc1`: 20 µM [falling, single point]; `COc1ccc(Cl)cc1C(=O)Nc1ccc2oc(-c3ccc(C(C)(C)C)cc3)nc2c1`: 25.1 µM [falling, single point]; `CCn1c(N)c(C(=O)NC2CCCCC2)sc1=S`: 15.8 µM [falling, partial curve].
Take `CCCSC1=NC2(CCN(C(=O)NC3CCCCC3)CC2)N=C1c1ccccc1`: the AC50 under setting [1] is 20 µM [falling, single point].
As to `Cc1cc2n(n1)CCCN2C(=O)Nc1ccc(Cl)cc1`, under setting [1], the AC50 is 0.631 µM [rising, single point].
As for `Cc1c(C(=O)OCC(C)C)[nH]c2c1C(=O)CC(c1ccco1)C2` (stereo not given), the AC50 reads like this: under setting [2], 0.794 µM [rising, full curve]; under setting [3], 0.158 µM [rising, full curve, poor fit].
Turning to `Fc1cccc(Cl)c1CNc1n[nH]c(-c2ccco2)n1`, under setting [1], the AC50 is 20 µM [falling, single point].
Turning to `Cc1ccc(Cl)cc1N1CCN(C(=O)c2cccn2-c2nnc(N3CCCCC3)s2)CC1`, the half-maximal activity concentration (AC50) under setting [1] is 31.6 µM [falling, partial curve].
In the case of `O=C(Nc1c(C(=O)O)oc2ccc(Br)cc12)c1ccccc1`, under setting [1], the AC50 was 0.794 µM [falling, full curve, poor fit].
For the molecule `CC(=O)Nc1ccc(S(=O)(=O)N2CCSC2c2ccccc2Cl)cc1` (stereo not given), under setting [1], the AC50 is 12.6 µM [falling, partial curve].
With `COc1ccc(N2CCN(c3nc(NCCc4ccc(OC)c(OC)c4)nc(OC)n3)CC2)cc1`, the AC50 under setting [1] is 3.16 µM [falling, full curve].
For `Cc1c(-c2ccccc2)c(=O)oc2c(CN3CCN(C)CC3)c(O)ccc12`, under setting [1], the AC50 was 0.316 µM [rising, full curve].
On the same count and under the same terms, then `COc1ccc(NC(=O)Cc2csc(COc3cccc(C)c3)n2)cc1OC`, with 15.8 µM [falling, partial curve]; and `Cc1ccc(C)c(S(=O)(=O)c2nnn3c2nc(NCc2cccs2)c2sccc23)c1`, with 7.94 µM [falling, full curve].
For the molecule `Cc1ccc(NC(=O)CN(C)S(=O)(=O)c2ccc3c(c2)CCC(=O)N3)c(C)c1`, the AC50 under setting [1] was 3.98 µM [falling, full curve].
Same read-out and setting: then `Cc1ccc(CN2CCCn3nc(C(=O)NCc4ccccc4Cl)cc3C2=O)cc1`, with 15.8 µM [falling, partial curve]; and `COc1ccccc1-c1noc(-c2ccc(N(C)Cc3ccccc3)c([N+](=O)[O-])c2)n1`, with 10 µM [falling, partial curve].
Take `CCCCN(CC)C(=O)CCn1c(=O)c2cccn2c2cccnc21`: the AC50 under setting [1] is 25.1 µM [falling, single point].
For the molecule `COc1ccccc1C(=O)c1c(N)c(-c2nc(-c3ccccc3)cs2)c2ccccn12`, under setting [1], the AC50 was 2.51 µM [falling, full curve].
As to `CCOc1ccccc1C(=O)Nc1ccc2nc(N3CCN(c4ncccn4)CC3)cc(C)c2c1`, under setting [1], the AC50 was 1 µM [falling, full curve, poor fit].
For `CCCCNC(=O)CN1C(=O)CSc2ccc(S(=O)(=O)N3CCC(C)CC3)cc21`, the AC50 under setting [1] was 31.6 µM [falling, single point].
In the case of `COc1cccc(NC(=O)CN(Cc2ccccc2)S(=O)(=O)c2ccc3nc(C)sc3c2)c1`, under setting [1], the concentration at half-maximal activity (AC50) was 20 µM [falling, partial curve].
For `CC1Cc2ccccc2N1C(=O)CSc1nc2ccccc2o1` (stereo not given), the half-maximal activity concentration (AC50) under setting [1] is 12.6 µM [falling, partial curve].
Same read-out and setting: then `O=C(NCc1ccco1)c1nn(-c2ccccc2)c(=O)c2ccccc12`, with 25.1 µM [falling, partial curve]; and `Cc1nn(CCCC(=O)NCc2cccc(F)c2)c(=O)c2nn(-c3ccccc3)c(C)c12`, with 7.94 µM [falling, partial curve].
On the same count and under the same terms, then `CCOC(=O)c1c(S(=O)(=O)NCC(=O)Nc2ccc(Cl)c(C(F)(F)F)c2)c(C)n(C)c1C`, with 3.16 µM [falling, single point]; and `CC(=O)c1cccc(NC(=O)COc2ccc(S(=O)(=O)N3CCCCC3)cc2)c1`, with 12.6 µM [falling, partial curve]; and `CCCCc1nn2c(=O)cc(COC(=O)c3cccc(NC(=O)c4cccc(C)c4)c3)nc2s1`, with 7.94 µM [falling, partial curve].
In the case of `Cc1c(Cl)cccc1NC(=O)Cn1nc(C(F)(F)F)c2c1CCC2`, the AC50 under setting [1] is 12.6 µM [falling, partial curve].
`COc1ccc(-c2cc3nc4c(c(N5CCC6(CC5)OCCO6)n3n2)CCCC4)cc1`: the AC50 under setting [1] was 12.6 µM [falling, partial curve].
As to `O=C1CCCCCN1Sc1ccccc1`, the AC50 under setting [2] is 31.6 µM [rising, partial curve] and the AC50 under setting [3] is 15.8 µM [rising, partial curve].
As for `Cc1cc(C)n(-c2nc3ccccc3nc2Nc2cccc(C(=O)NCCc3ccccc3)c2)n1`, the AC50 under setting [1] was 25.1 µM [falling, partial curve, poor fit].
With `CCOc1ccc(CNc2ccc3c(c2)nc(C)n3C)cc1`, under setting [1], the half-maximal activity concentration (AC50) is 10 µM [falling, partial curve].
Regarding `Nc1c(NCCCN2CCOCC2)c2ccccc2oc1=O`, the AC50 under setting [1] was 7.94 µM [falling, full curve].
Still for that read-out and setting: next, `Cc1ccc(NC(=O)C2CCCN(S(=O)(=O)c3cccc4cccnc34)C2)c(Br)c1` (stereo not given): 39.8 µM [falling, single point]; `Cn1cc(S(=O)(=O)N2CCCCCC2)cc1C(=O)NCc1ccc(Cl)cc1`: 39.8 µM [falling, single point]; `CC1=C(C(=O)Nc2ccccc2)C(c2cccc(O)c2)n2nc(-c3ccccc3Cl)nc2N1` (stereo not given): 15.8 µM [falling, single point].
Regarding `COc1ccccc1-c1nn2c(=O)cc(CN3CCN(S(=O)(=O)c4ccc(C)cc4)CC3)nc2s1`, under setting [1], the AC50 was 0.0501 µM [falling, full curve, poor fit].

As usually defined, the AC50 is the concentration giving half of the maximal activity seen.

The record behind these values is PubChem BioAssay AID445 (National Center for Advancing Translational Sciences (NCATS), 2006).
